# Measurements as given in PubChem BioAssay AID2685 (National Center for Advancing Translational Sciences (NCATS), 2010).
# The list shows a part of the results. Further columns of the screen follow, without active or inactive calls. Most of these compounds were active or inconclusive in the main read-out, so they are no random draw. The note in brackets gives the kind of curve behind each potency; many fits are weak.
# Experiment: qHTS Assay for Lipid Storage Modulators in Drosophila S3 Cells;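 on cell number change: cells counted by Cell Tracker Red CMTPX staining in the red channel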
# Settings: BODIPY lipid droplet fluorescence, 18-24 h; for cell number change: measured here: cell count max response, cells fed with added oleic acid
# Outline: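 Drosophila S3 cells got compounds at several concentrations plus oleic acid (400 uM solution). Laser-scanning cytometry with 488 nm excitation read lipid droplets at 500-530 nm and cells at 575-640 nm. Percent activity was relative to 20 uM Triacsin C.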
# [1] = measured here: lipid fluorescence (Fed channel) AC50, cells fed with added oleic acid
# [2] = measured here: cell number channel AC50, cells fed with added oleic acid
Compound,cell number change [%],AC50 [1],AC50 [2]
CSCCC(NC(=O)c1ccco1)C(=O)N1CC=C(c2ccccc2)CC1 (centres undefined),26.5,"12.6 µM [rising, single point]",
C=C(C)C(=O)Nc1ccc(OC(F)(F)C(F)F)c(NC(=O)C(=C)C)c1,-50.7,"23.1 µM [falling, single point]","20.6 µM [falling, partial curve, poor fit]"
CC(=O)c1sc(NC(=O)c2ccc(Cn3cc(Br)cn3)o2)nc1C,,"0.731 µM [falling, full curve]","0.731 µM [falling, full curve]"
COc1ccc(CCNS(=O)(=O)c2cc3c(cc2C)NC(=O)CO3)cc1OC,19.9,"20.6 µM [falling, single point]",
COc1ccc(S(=O)(=O)N2CCC(C(=O)NCC3CCCO3)CC2)cc1Cl (centres undefined),6.58,"0.1 µM [falling, full curve, poor fit]",
COc1ccc(CCn2c(C)cc(C(=O)CSc3nnnn3-c3ccccc3)c2C)cc1OC,-44.5,"2.31 µM [falling, partial curve]","32.6 µM [falling, single point]"
CC1CN(C(=O)N[C@@H](Cc2ccccc2)C(=O)O)CC(C)O1 (some centres undefined),-12.9,"0.82 µM [falling, full curve, poor fit]","0.366 µM [falling, full curve, poor fit]"
CC(=O)c1ccc(OCCCC(=O)Nc2ccc(C)c(S(=O)(=O)N3CCCCC3)c2)cc1,,,"3.26 µM [rising, single point]"
NC(CC(=O)OC1CCCCC1)C(=O)OC1CCCCC1 (centres undefined),-27.7,,"0.103 µM [falling, full curve, poor fit]"
CCc1cc(=O)n2c([nH]c3ccccc32)c1C#N,44.7,,"20.6 µM [rising, single point]"
O=c1[nH]nc(-c2cccs2)c2ccccc12,6.9,,"3.66 µM [rising, single point]"
O=C(O)CNC(=O)CCN1C(=O)c2ccccc2C1=O,-19.9,"20.6 µM [falling, partial curve]",
Cc1ccc(C2(C)NC(=O)N(CC(=O)N3CCN(C(=O)c4cccs4)CC3)C2=O)cc1 (centres undefined),-15.2,"0.103 µM [falling, partial curve, poor fit]",
CCc1nnc(NC(=O)c2ccc3ncsc3c2)s1,-42.5,"4.61 µM [falling, full curve]","5.17 µM [falling, full curve, poor fit]"
COc1ccc(NC(=O)CSc2nnc(CNc3ccc(F)cc3)o2)c(OC)c1,35.3,"20.6 µM [rising, partial curve]","10.3 µM [rising, single point]"
